# Source: PubChem BioAssay AID602296 (Broad Institute, 2012)
# In all, about 2,000 compounds went through this assay and about 190 (9.5%) were called active. Not shown: some 14% with an inconclusive outcome.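 How the source made its calls: active means fitted activation curve crossing 40% at a concentration no higher than the sample's top valid tested dose; inconclusive means flat fitted curve at 30% to 70% activation, or poor curve fit; inactive means signal decrease, flat curve within 30%, or the rest.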 The list lacks most of the strong results.
# Experiment: sustained heat shock response element induction – cell-based, mouse, luciferase, cherry-pick, dose, confirmation (AID 602296);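 further: test compounds applied by themselves with no MG132 co-treatment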
# Details: NIH3T3-HGL HSF-1 response element luciferase, 48 h; at 26 µM (top of the series) unless noted
row,SMILES,activation
1,COc1ccc(CCNCc2cc(C)n(-c3ccc(OC)cc3)c2C)cc1,inactive: -9.47%
2,O=C(O)CCn1[nH]c(=O)ccc1=O,inactive: -2.04%
3,O=C(COC(=O)COc1cccc(Br)c1)Nc1c(Cl)cccc1Cl,inactive: -10.5%
4,Cc1ccc(Cn2cc(S(=O)(=O)c3ccc(Cl)cc3)c(=O)c3cc(F)ccc32)cc1,inactive: -16%
5,CN1CCN(C(=O)/C(=C/c2cccnc2)NC(=O)c2cccc(Br)c2)CC1,inactive: -1.28%
6,COC(=O)[C@@H](NC(=O)NC1CCCc2ccccc21)C(C)C (stereo partly specified),inactive: 18.5%
7,C=CCNC(=S)NNC(=O)c1cccn(Cc2ccc(Cl)c(Cl)c2)c1=O,inactive: 2.28%
8,Cc1cccc(N2C(=N)SCC2=O)c1C,inactive: -10.8%
9,CCS(=O)(=O)Nc1ccc2[nH]c(=O)[nH]c2c1,inactive: 3.52%
10,CCOc1ccc(OCCC(=O)OCC(=O)N2CCN(S(=O)(=O)c3ccc(Cl)cc3)CC2)cc1,inactive: -103%
11,Cc1ccc(/C=C/C(=O)c2ccccc(=O)c2O)cc1C,inactive: 189%
12,C=CCn1c(C2CCCCC2)n[nH]c1=S,inactive: -1.72%
13,O=C(CCN1C(=O)c2ccccc2C1=O)Nc1sc2c(c1C(=O)NCC1CCCO1)CCC2 (stereo unspecified),inactive: 12.4%
14,CCOc1ccc(S(=O)(=O)NNC(=S)Nc2ccc(Br)cc2)cc1,inactive: 0.555%
15,CC(=O)c1cccc(N=Cc2c(O)c3ccccc3oc2=O)c1,inactive: 27.1%
16,Cc1csc(-c2cnn(-c3ccccc3)c2NC(=O)c2cccc(C(F)(F)F)c2)n1,inactive: -1.93%
17,CC1CC(=O)N(c2ccc(Br)cc2)C(=O)C1,inactive: -2.72%
18,CC(=O)Nc1ccc(N2C(=O)C3C4CC(=O)C(c5ccccc54)C3C2=O)cc1 (stereo unspecified),inactive: -4.5%
19,CCOC(=O)Nc1ccc2c(c1)N(C(=O)CCN1CCOCC1)c1ccccc1S2=O (stereo unspecified),inactive: -22.4%
20,COc1ccc(CNC(=O)Oc2ccccc2)cc1Cl,inactive: 3.54%
21,COc1ccc(F)cc1S(=O)(=O)Nc1ccc2c(c1)OCO2,inactive: -1.5%
22,CCCC(C(=O)NCc1ccco1)N(C(=O)CNS(=O)(=O)c1ccc(Cl)cc1)C1CCCC1 (stereo unspecified),inactive: -5.22%
23,CCCOC(=O)c1ccc(Oc2cn[nH]c2-c2ccc(O)cc2O)cc1,inactive: 3.1%

# Given with tabs: 2 of the compounds above
row	SMILES	activation
8	Cc1cccc(N2C(=N)SCC2=O)c1C	inactive: -10.8%
9	CCS(=O)(=O)Nc1ccc2[nH]c(=O)[nH]c2c1	inactive: 3.52%

# Later entries.

row,SMILES,activation
1,CSc1nc(S(=O)(=O)c2ccc(C)cc2)c(Cl)s1,inactive: 4.27%
2,COc1ccc(C(=O)n2nc(-c3ccc(Cl)cc3)nc2N)cc1OC,inactive: 10.7%
3,Cc1ccc(Cl)c2c1=NC(=O)C=2c1[nH]c(=S)[nH]c1O,inactive: -16.3%
4,CCCN(CCC)CCCNC(=O)CS(=O)Cc1nc(-c2ccc(OC)c(OC)c2)oc1C (stereo unspecified),inactive: -0.016%
5,O=C(c1cn(CC(=O)N2CCCCC2)c2ccccc12)C1CC1,inactive: -0.249%
6,Cc1nn(Cc2ccccc2Cl)c(C)c1NC(=O)CCCn1nc([N+](=O)[O-])c(Cl)c1C,inactive: -5.26%
7,CCOC(=O)c1nnc(-c2ccccc2)nc1Sc1ccccc1Cl,inactive: -101%
8,COc1cccc(CSc2nnc(C(F)(F)F)n2Cc2ccc(F)cc2)c1,inactive: -2.57%
9,O=C(NCCc1nc2ccccc2[nH]1)/C(=C/c1ccc(F)cc1)NC(=O)c1ccco1,inactive: 7.33%
10,COc1ccc(S(=O)(=O)N(C)c2ccc(C(=O)NCc3ccccn3)cc2)cc1,inactive: -7.8%
11,CCC(=O)Nc1ccccc1C(=O)OCC(=O)c1ccccc1,inactive: -72.4%
12,Cc1cc(OCC(=O)N(Cc2ccco2)C2CCS(=O)(=O)C2)cc(C)c1Cl (stereo unspecified),inactive: 5.75%
13,COc1ccc(C2NC(=O)CCC2[N+](=O)[O-])c(OC)c1 (stereo unspecified),inactive: -2.53%
14,Cc1nn(C)cc1/C=N\NC(=O)c1ccc2c(c1)c(C)c(C)n2Cc1ccccc1,inactive: -36.8%
15,CCOC(=O)Cn1c(S(=O)(=O)Cc2ccc(F)cc2)nc(-c2ccccc2)c1-c1ccccc1,inactive: -37%
16,CCn1cc([N+](=O)[O-])c(C(=O)N2N=C(c3ccc(Cl)c(Cl)c3)CC2c2ccccc2O)n1 (stereo unspecified),inactive: -83.2%
17,Cc1ccc(C(=O)Oc2oc(-c3ccccc3)nc2C=Nc2ccc(N(C)C)cc2)cc1,inactive: -59%
18,CCOC(=O)C1=C(c2ccc(OC)cc2)C(=O)c2ccccc2C1=O,inactive: -99.7%
19,Cc1nc2cc3nc(C(F)(F)F)[nH]c3cc2[nH]1,inactive: -1.68%
20,C=CCn1c(=O)c2c3c(sc2n2c(Nc4ccccc4)nnc12)CCCC3,inactive: -63%
21,CS(=O)(=O)c1sc(C#N)c2c1C(=O)CC(c1ccccc1)C2 (stereo unspecified),inactive: -102%
22,O=C(Cc1c(O)c2ccccc2oc1=O)c1ccc(C(F)(F)F)cc1,inactive: 9.57%
23,COc1cccc(NC(=O)CN2C(=O)COc3ccc(S(=O)(=O)N4CCC(C)CC4)cc32)c1,inactive: -21.1%

row,SMILES,activation
1,O=C1NN(c2ccccc2)C(=O)/C1=C\c1ccc2c(c1)OCO2,inactive: 5.08%
2,Cc1ccc(O)c(NC(=O)CSc2n[nH]c(-c3ccccc3)n2)c1,inactive: -16.8%
3,COC(=O)[C@H](CCSC)NC(=O)Nc1cccc(C)c1C,inactive: -4.71%
4,O=[N+]([O-])c1ccc(Sc2nc3ccccc3o2)c([N+](=O)[O-])c1,inactive: -101%
5,Brc1ccc(CSc2nnc(-c3ccccn3)n2Cc2ccco2)cc1,inactive: -64.8%
6,COc1cc(C(Nc2ccccn2)c2ccc3ccc(C)nc3c2O)cc(OC)c1O (stereo unspecified),inactive: -95.5%
7,CC(C)CC(NS(=O)(=O)c1ccc2c(c1)oc(=O)n2C)C(=O)NC1CCCc2ccccc21 (stereo unspecified),inactive: 1.38%
8,CCN(C(=O)c1cccc(S(=O)(=O)N2CCCCC2)c1)C1CCS(=O)(=O)C1 (stereo unspecified),inactive: 6.03%
9,COc1ccc(C(=O)/C=C/c2ccc(OC)c(Cn3nnc4ccccc43)c2)cc1,inactive: 36.6%
10,O=C(Nc1ccc(Nc2ccccc2)cc1)c1cc([N+](=O)[O-])ccc1Cl,inactive: -101%
11,CC1CN(C(=O)CS(=O)(=O)Cc2ccccc2)CC(C)O1 (stereo unspecified),inactive: 5.95%
12,COC(=O)Cn1c2ccc(OC)cc2c2nc(C)sc21,inactive: -3.21%
13,COc1cccc(-c2nc(N3CCN(c4ccccc4)CC3)c3ccccc3n2)c1O,inactive: 22.3%
14,COCCNC(=O)/C(C#N)=C/c1ccc(OC(=O)c2cccs2)c(OC)c1,inactive: -13.7%
15,Cc1ccc(NNC(=O)c2cccs2)cc1Cl,inactive: -34.3%
16,COc1cc2c3c(c1OC)C1(C=CC(=O)C=C1)CC3N(C(=O)c1ccccc1)CC2 (stereo unspecified),inactive: -1.28%
17,CCc1cc2c(SCC#N)ncnc2s1,inactive: 11.3%
18,COc1ccccc1-c1ccc(SCC(=O)Nc2cc(C)on2)nn1,inactive: 5.23%
19,COc1ccc2c(C)cc(N3CCCCCC3)nc2c1,inactive: -3.9%
20,NCCc1nnc(SCc2ccc(F)cc2)o1,inactive: 3.81%
21,N#Cc1cc(Oc2cccc3cccnc23)c(-n2nnc3ccccc32)cc1C#N,inactive: -101%
22,N#CC1=C(N)Oc2c(O)cc3ccccc3c2C1c1ccsc1 (stereo unspecified),inactive: -50%
23,O=C(CSc1cc(Cl)ccc1Cl)NCC(=O)Nc1ccc(F)c(F)c1F,inactive: -0.799%

# Quoted from the listing.
# COc1ccc2c(C)cc(N3CCCCCC3)nc2c1 – activation: inactive: -3.9%
# COc1ccccc1-c1ccc(SCC(=O)Nc2cc(C)on2)nn1 – activation: inactive: 5.23%

# (continued)

row,SMILES,activation
1,Cc1cc2nc3ccc(=[N+](C)C)cc-3sc2cc1N,inactive: -82.9%
2,CCn1c(=O)n(CC)c2cc(S(=O)(=O)Nc3ccccc3C)c(C)cc21,inactive: -35.8%
3,CCCc1cc(=O)oc2c3c(cc(OCC(=O)N[C@@H](C)C(=O)O)c12)OC(C)(C)CC3,inactive: -8.19%
4,CCOC(=O)c1c(NC(=O)CSc2nc3cc(Cl)ccc3c(=O)n2Cc2ccco2)sc(C(=O)N(C)C)c1C,inactive: -29.4%
5,S=C(c1cn(Cc2ccc(Br)cc2)c2ccccc12)N1CCOCC1,inactive: -21.8%
6,COc1ccc(C2CC(=O)C3=C(C2)Nc2ncnn2C3c2ccccc2)cc1 (stereo unspecified),inactive: -9.17%
7,Cc1ccc2c(CN3CCN(S(=O)(=O)/C=C/c4ccccc4)CC3)cc(=O)oc2c1,inactive: -1.07%
8,CCN(CCCNC(=O)CCCN1C(=O)COc2ccc(C)cc21)c1cccc(C)c1,inactive: -34.6%
9,Cc1ccc(CNC(=O)Cn2ccc3ccccc3c2=O)o1,inactive: 10.8%
10,Cc1ccc(CN2CCN(/N=C/c3ccc(C)s3)CC2)c(C)c1,inactive: 15.4%
11,CCN(CC)S(=O)(=O)c1ccc(OC)c(NC(=O)c2cc3c(=O)n4ccccc4nc3s2)c1,inactive: 13.6%
12,O=c1[nH]c(CCl)nc2cc(-c3ccc(F)cc3)sc12,inactive: -75.9%
13,COc1cc2c(cc1OC)C(C)N(S(=O)(=O)c1cnc(Cl)c(Cl)c1)CC2 (stereo unspecified),inactive: -29.7%
14,O=C(CSc1nc(O)cc(=O)n1-c1ccccc1)Nc1ccc2c3c(cccc13)CC2,inactive: -3.56%
15,COC(=O)c1cc(OC)c(OC)cc1NC(=S)N1CCCC1,inactive: 1.22%
16,CCOC(=O)/C=C/C(=O)OCC(=O)NC(c1ccccc1)c1ccccc1,inactive: -43.9%
17,CCOC(=O)CSc1nc2c(sc3ccc([N+](=O)[O-])cc32)c(=O)n1Cc1ccco1,inactive: -15.3%
18,Cc1ccccc1N=C1SC(CC(=O)Nc2ccc3ccccc3c2)C(=O)N1Cc1ccccn1 (stereo unspecified),inactive: -68.6%
19,COC(=O)N1C(=O)[C@@](c2ccccc2)(C2CCCC2)N1C(=O)OC,inactive: 1.01%
20,CCc1ccccc1NC(=O)COc1ccc2c(=O)c(Oc3cc(C)ccc3C)coc2c1,inactive: -23.8% [at 12 µM]
21,COc1ccc(CNC2CCSc3ccccc32)cc1OC (stereo unspecified),inactive: -9.8%
22,Oc1ccc(C2C[C@H]3CC[C@@H]2C3)cc1O (stereo partly specified),inactive: -46.2%
